The other results are listed elsewhere or left out.
Key:
Test in all cases: glycan array binding signal (z-score within array); higher = stronger binding
Conditions in all cases: glycan notation: IUPAC condensed, linker removed
[1] = biological target: GlcNAc(b1-2)[GlcNAc(b1-4)]Man(a1-3)[GlcNAc(b1-4)][GlcNAc(b1-2)[GlcNAc(b1-6)]Man(a1-6)]Man(b1-4)GlcNAc(b1-4)GlcNAc
Procedure, shortened: (§1)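 Glycan array data were curated from 3228 arrays in the Consortium for Functional Glycomics database and kept only where the protein sequence was available. Glycan names were converted to IUPAC-condensed notation, and columns mapping to the same glycan were averaged. The binding signal is a within-array Z-score, averaged across arrays of the same protein sequence at different concentrations or buffers and across linkers. Negative Z-scores can be read as non-binding.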

[2] = biological target: GlcNAc(b1-2)[GlcNAc(b1-4)]Man(a1-3)[GlcNAc(b1-4)][GlcNAc(b1-2)[GlcNAc(b1-6)]Man(a1-6)]Man(b1-4)GlcNAc(b1-4)[Fuc(a1-6)]GlcNAc
Procedure, shortened: as §1

[3] = biological target: GlcNAc(b1-2)[GlcNAc(b1-6)]Man(a1-6)[GlcNAc(b1-2)Man(a1-3)]Man(b1-4)GlcNAc(b1-4)GlcNAc
Procedure, shortened: as §1

[4] = biological target: GlcNAc(b1-2)[GlcNAc(b1-6)]Man(a1-6)[GlcNAc(b1-2)Man(a1-3)]Man(b1-4)GlcNAc(b1-4)[Fuc(a1-6)]GlcNAc
Procedure, shortened: as §1

[5] = biological target: GlcNAc(b1-2)[GlcNAc(b1-6)]Man(a1-6)[GlcNAc(b1-4)][GlcNAc(b1-2)Man(a1-3)]Man(b1-4)GlcNAc(b1-4)GlcNAc
Procedure, shortened: as §1

GlcNAc(b1-3)Fuc = biological target: GlcNAc(b1-3)Fuc
Procedure, shortened: as §1

GlcNAc(b1-3)Gal = biological target: GlcNAc(b1-3)Gal
Procedure, shortened: as §1

[6] = biological target: GlcNAc(b1-3)Gal(b1-3)GalNAc
Procedure, shortened: as §1

GlcNAc(b1-3)Gal(b1-4)Glc = biological target: GlcNAc(b1-3)Gal(b1-4)Glc
Procedure, shortened: as §1

[7] = biological target: GlcNAc(b1-3)Gal(b1-4)GlcNAc
Procedure, shortened: as §1

[8] = biological target: GlcNAc(b1-3)Gal(b1-4)GlcNAc(b1-2)Man(a1-3)[GlcNAc(b1-3)Gal(b1-4)GlcNAc(b1-2)Man(a1-6)]Man(b1-4)GlcNAc(b1-4)GlcNAc
Procedure, shortened: as §1

[9] = biological target: GlcNAc(b1-3)Gal(b1-4)GlcNAc(b1-2)Man(a1-3)[GlcNAc(b1-3)Gal(b1-4)GlcNAc(b1-2)Man(a1-6)]Man(b1-4)GlcNAc(b1-4)[Fuc(a1-6)]GlcNAc
Procedure, shortened: as §1

[10] = biological target: GlcNAc(b1-3)Gal(b1-4)GlcNAc(b1-2)[GlcNAc(b1-3)Gal(b1-4)GlcNAc(b1-6)]Man(a1-6)[GlcNAc(b1-3)Gal(b1-4)GlcNAc(b1-2)Man(a1-3)]Man(b1-4)GlcNAc(b1-4)GlcNAc
Procedure, shortened: as §1

[11] = biological target: GlcNAc(b1-3)Gal(b1-4)GlcNAc(b1-3)Gal(b1-4)GlcNAc
Procedure, shortened: as §1

[12] = biological target: GlcNAc(b1-3)Gal(b1-4)GlcNAc(b1-3)Gal(b1-4)GlcNAc(b1-2)Man(a1-3)[GlcNAc(b1-3)Gal(b1-4)GlcNAc(b1-3)Gal(b1-4)GlcNAc(b1-2)Man(a1-6)]Man(b1-4)GlcNAc(b1-4)GlcNAc
Procedure, shortened: as §1

[13] = biological target: GlcNAc(b1-3)Gal(b1-4)GlcNAc(b1-3)Gal(b1-4)GlcNAc(b1-2)Man(a1-3)[GlcNAc(b1-3)Gal(b1-4)GlcNAc(b1-3)Gal(b1-4)GlcNAc(b1-2)Man(a1-6)]Man(b1-4)GlcNAc(b1-4)[Fuc(a1-6)]GlcNAc
Procedure, shortened: as §1

[14] = biological target: GlcNAc(b1-3)Gal(b1-4)GlcNAc(b1-3)Gal(b1-4)GlcNAc(b1-2)[GlcNAc(b1-3)Gal(b1-4)GlcNAc(b1-3)Gal(b1-4)GlcNAc(b1-6)]Man(a1-6)[GlcNAc(b1-3)Gal(b1-4)GlcNAc(b1-3)Gal(b1-4)GlcNAc(b1-2)Man(a1-3)]Man(b1-4)GlcNAc(b1-4)[Fuc(a1-6)]GlcNAc
Procedure, shortened: as §1

[15] = biological target: GlcNAc(b1-3)Gal(b1-4)GlcNAc(b1-3)Gal(b1-4)GlcNAc(b1-3)Gal(b1-4)GlcNAc(b1-2)Man(a1-3)[GlcNAc(b1-3)Gal(b1-4)GlcNAc(b1-3)Gal(b1-4)GlcNAc(b1-3)Gal(b1-4)GlcNAc(b1-2)Man(a1-6)]Man(b1-4)GlcNAc(b1-4)GlcNAc
Procedure, shortened: as §1

[16] = biological target: GlcNAc(b1-3)Gal(b1-4)GlcNAc(b1-3)Gal(b1-4)GlcNAc(b1-3)Gal(b1-4)GlcNAc(b1-2)Man(a1-3)[GlcNAc(b1-3)Gal(b1-4)GlcNAc(b1-3)Gal(b1-4)GlcNAc(b1-3)Gal(b1-4)GlcNAc(b1-2)Man(a1-6)]Man(b1-4)GlcNAc(b1-4)[Fuc(a1-6)]GlcNAc
Procedure, shortened: as §1

[17] = biological target: GlcNAc(b1-3)Gal(b1-4)GlcNAc(b1-3)Gal(b1-4)GlcNAc(b1-3)Gal(b1-4)GlcNAc(b1-2)[GlcNAc(b1-3)Gal(b1-4)GlcNAc(b1-3)Gal(b1-4)GlcNAc(b1-3)Gal(b1-4)GlcNAc(b1-6)]Man(a1-6)[GlcNAc(b1-3)Gal(b1-4)GlcNAc(b1-3)Gal(b1-4)GlcNAc(b1-3)Gal(b1-4)GlcNAc(b1-2)Man(a1-3)]Man(b1-4)GlcNAc(b1-4)[Fuc(a1-6)]GlcNAc
Procedure, shortened: as §1

[18] = biological target: GlcNAc(b1-3)Gal(b1-4)GlcNAc(b1-3)Gal(b1-4)GlcNAc(b1-3)Gal(b1-4)GlcNAc(b1-3)Gal(b1-4)GlcNAc(b1-2)Man(a1-3)[GlcNAc(b1-3)Gal(b1-4)GlcNAc(b1-3)Gal(b1-4)GlcNAc(b1-3)Gal(b1-4)GlcNAc(b1-3)Gal(b1-4)GlcNAc(b1-2)Man(a1-6)]Man(b1-4)GlcNAc(b1-4)GlcNAc
Procedure, shortened: as §1

[19] = biological target: GlcNAc(b1-3)Gal(b1-4)GlcNAc(b1-3)Gal(b1-4)GlcNAc(b1-3)Gal(b1-4)GlcNAc(b1-3)Gal(b1-4)GlcNAc(b1-2)Man(a1-3)[GlcNAc(b1-3)Gal(b1-4)GlcNAc(b1-3)Gal(b1-4)GlcNAc(b1-3)Gal(b1-4)GlcNAc(b1-3)Gal(b1-4)GlcNAc(b1-2)Man(a1-6)]Man(b1-4)GlcNAc(b1-4)[Fuc(a1-6)]GlcNAc
Procedure, shortened: as §1

[20] = biological target: GlcNAc(b1-3)Gal(b1-4)GlcNAc(b1-3)Gal(b1-4)GlcNAc(b1-3)Gal(b1-4)GlcNAc(b1-3)Gal(b1-4)GlcNAc(b1-2)[GlcNAc(b1-3)Gal(b1-4)GlcNAc(b1-3)Gal(b1-4)GlcNAc(b1-3)Gal(b1-4)GlcNAc(b1-3)Gal(b1-4)GlcNAc(b1-6)]Man(a1-6)[GlcNAc(b1-3)Gal(b1-4)GlcNAc(b1-3)Gal(b1-4)GlcNAc(b1-3)Gal(b1-4)GlcNAc(b1-3)Gal(b1-4)GlcNAc(b1-2)Man(a1-3)]Man(b1-4)GlcNAc(b1-4)[Fuc(a1-6)]GlcNAc
Procedure, shortened: as §1

[21] = biological target: GlcNAc(b1-3)Gal(b1-4)GlcNAc(b1-3)Gal(b1-4)GlcNAc(b1-3)GalNAc
Procedure, shortened: as §1

[22] = biological target: GlcNAc(b1-3)Gal(b1-4)GlcNAc(b1-3)GalNAc
Procedure, shortened: as §1

[23] = biological target: GlcNAc(b1-3)Gal(b1-4)GlcNAc(b1-3)[GlcNAc(b1-3)Gal(b1-4)GlcNAc(b1-3)]GalNAc
Procedure, shortened: as §1

[24] = biological target: GlcNAc(b1-3)Gal(b1-4)GlcNAc(b1-6)[Gal(b1-3)]GalNAc
Procedure, shortened: as §1

[25] = biological target: GlcNAc(b1-3)Gal(b1-4)GlcNAc(b1-6)[GlcNAc(b1-3)Gal(b1-3)]GalNAc
Procedure, shortened: as §1

[26] = biological target: GlcNAc(b1-3)Gal(b1-4)GlcNAc(b1-6)[GlcNAc(b1-3)]Gal(b1-4)GlcNAc
Procedure, shortened: as §1

GlcNAc(b1-3)GalNAc = biological target: GlcNAc(b1-3)GalNAc
Procedure, shortened: as §1

GlcNAc(b1-3)Man = biological target: GlcNAc(b1-3)Man
Procedure, shortened: as §1

[27] = biological target: GlcNAc(b1-3)[GlcNAc(b1-4)][GlcNAc(b1-6)]GlcNAc
Procedure, shortened: as §1

[28] = biological target: GlcNAc(b1-3)[GlcNAc(b1-6)]Gal(b1-4)GlcNAc
Procedure, shortened: as §1

[29] = biological target: GlcNAc(b1-3)[GlcNAc(b1-6)]GalNAc
Procedure, shortened: as §1

[30] = biological target: GlcNAc(b1-4)Gal(b1-4)GlcNAc
Procedure, shortened: as §1

GlcNAc(b1-4)GlcNAc = biological target: GlcNAc(b1-4)GlcNAc
Procedure, shortened: as §1

[31] = biological target: GlcNAc(b1-4)GlcNAc(b1-4)GlcNAc
Procedure, shortened: as §1

[32] = biological target: GlcNAc(b1-4)GlcNAc(b1-4)GlcNAc(b1-4)GlcNAc(b1-4)GlcNAc
Procedure, shortened: as §1

B1: SfaEH (Escherichia coli), Q1RDG5 (protein)
chain: LLCRNNQTGQVFNSGDTSFRVNVSPVVQYDKSISVLDLSQLVSCQNEDSTGQNYDYLKILKGSGFSPALDTKTYGRLDFTSRPTGYARQLPLQFDLQVTEAFYQYGVWKPFPAKLYLYPAPGVFGKVINNGDLLATLYVNKFSTKGQEAGERNFTWRFYATNDVYIQTGTCRVSSNNVKVDLPSYPGGPVTVPLTVRCDQTQSVSYTLSGPVTGSGNTVFANTAASGSGGVGIQLSDNVGPVPAGQPRSLGQVGSSPVSLGLKASYALTGQASPTPGAVQSVINVTFSYN
[1]
  glycan array binding signal (z-score): -0.811
[2]
  glycan array binding signal (z-score): 0.342
[3]
  glycan array binding signal (z-score): -0.668
[4]
  glycan array binding signal (z-score): -0.929
[5]
  glycan array binding signal (z-score): -0.776
GlcNAc(b1-3)Fuc
  glycan array binding signal (z-score): 0.322
GlcNAc(b1-3)Gal
  glycan array binding signal (z-score): 0.771
[6]
  glycan array binding signal (z-score): 0.389
GlcNAc(b1-3)Gal(b1-4)Glc
  glycan array binding signal (z-score): -0.647
[7]
  glycan array binding signal (z-score): -0.979
[8]
  glycan array binding signal (z-score): -0.316
[9]
  glycan array binding signal (z-score): -0.202
[10]
  glycan array binding signal (z-score): 2.3
[11]
  glycan array binding signal (z-score): -1.22
[12]
  glycan array binding signal (z-score): 1.13
[13]
  glycan array binding signal (z-score): 0.293
[14]
  glycan array binding signal (z-score): -0.588
[15]
  glycan array binding signal (z-score): -0.69
[16]
  glycan array binding signal (z-score): 0.923
[17]
  glycan array binding signal (z-score): -0.469
[18]
  glycan array binding signal (z-score): -0.262
[19]
  glycan array binding signal (z-score): -0.174
[20]
  glycan array binding signal (z-score): 0.251
[21]
  glycan array binding signal (z-score): 0.621
[22]
  glycan array binding signal (z-score): 0.491
[23]
  glycan array binding signal (z-score): 0.026
[24]
  glycan array binding signal (z-score): -0.083
[25]
  glycan array binding signal (z-score): -0.578
[26]
  glycan array binding signal (z-score): -0.044
GlcNAc(b1-3)GalNAc
  glycan array binding signal (z-score): -0.271
GlcNAc(b1-3)Man
  glycan array binding signal (z-score): -0.51
[27]
  glycan array binding signal (z-score): 0.899
[28]
  glycan array binding signal (z-score): -0.093
[29]
  glycan array binding signal (z-score): 0.013
[30]
  glycan array binding signal (z-score): -0.293
GlcNAc(b1-4)GlcNAc
  glycan array binding signal (z-score): -0.35
[31]
  glycan array binding signal (z-score): -0.487
[32]
  glycan array binding signal (z-score): 0.079

Reference: the supplement of paper PMC8728848
